# PubChem BioAssay AID652243 – Drosophila RNAi Screening Center | 2013
# Purpose: 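Knock-downs that decrease or increase androgen receptor reporter signal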 (primary screen)
# System: Drosophila S2R+ cells
# Reagent: long dsRNA against Drosophila genes
# Timing: 72 h (48 h, then 24 h hormone)
# Challenge: synthetic androgen R1881 at 10 nM for 24 h
# Measurement: 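Firefly light from an androgen-responsive reporter and Renilla control light per well, raw and unnormalised, for each of two replicates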
# Direction: firefly reporter light: higher = more light from androgen-responsive reporter; Renilla control light: higher = more constitutive control signal (cell number, transfection)
# Call rule: 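Across duplicate plates, a knock-down whose log firefly/Renilla ratio shifted a set fold down or up from the GFP/LacZ control mean was a hit; the downward cut appears as both 1.5 and 3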
# Calls: active = hit: reporter lowered or raised; inactive = no hit
# In all, the deposit lists about 24,000 reagents; this is a random part of those that have a named target and a result. Over the whole deposit, 246 (1%) were called active. 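Plates not normalised; calls are printed but the firefly/Renilla ratio behind them is not deposited; fold cut for lowering reported inconsistently.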 Raw values vary from plate to plate and are shown uncorrected. Reagents against one gene are numbered here. A plus sign joins genes that one reagent is predicted to hit. Reagent sequences are not shown. Not given: the amount of reagent.
target gene,reagent no.,"firefly reporter light, replicate 1","firefly reporter light, replicate 2","Renilla control light, replicate 1","Renilla control light, replicate 2",call
wnd (GeneID 40143),1,,,,,inactive
wnd (GeneID 40143),2,41594,34868,1.91e5,1.82e5,active
wnd (GeneID 40143),3,1.01e6,1.05e6,2.60e6,1.91e6,inactive
wnd (GeneID 40143),4,,,,,inactive
CG13912 (GeneID 38120),1,47975,52396,8.77e5,7.43e5,inactive
Yeti (GeneID 7354404),1,8.79e5,6.98e5,1.10e6,8.78e5,inactive
Mst98Cb (GeneID 43367),1,3.63e5,3.82e5,2.24e6,2.18e6,inactive
Mst98Cb (GeneID 43367),2,6.03e5,8.36e5,5.22e5,1.05e6,inactive
Mst98Cb (GeneID 43367),3,5.99e5,5.87e5,4.06e5,4.51e5,inactive
Nprl2 (GeneID 32677),1,1.22e5,1.09e5,6.29e5,5.26e5,inactive
mRpS10 (GeneID 41838),1,1.53e5,1.83e5,3.02e6,3.04e6,inactive
cGlr2 (GeneID 246606),1,1.16e5,1.62e5,2.58e5,3.25e5,inactive
CG14421 (GeneID 31285),1,2.24e5,2.34e5,3.44e6,3.27e6,inactive
CG14421 (GeneID 31285),2,1.29e6,1.31e6,9.60e5,8.89e5,inactive
CG15201 (GeneID 32053),1,5.34e5,5.76e5,2.43e6,2.69e6,inactive
Bace (GeneID 34182),1,3.65e5,3.05e5,2.14e6,2.90e6,inactive
Bace (GeneID 34182),2,8.68e5,7.80e5,1.44e6,1.59e6,inactive
snama (GeneID 37857),1,5.59e5,4.70e5,1.60e6,1.66e6,inactive
snama (GeneID 37857),2,7.70e5,8.35e5,1.55e6,1.45e6,inactive
CG12071 (GeneID 43660),1,5.40e5,7.21e5,1.12e6,1.39e6,inactive
CG13896 (GeneID 38089),1,1.05e5,1.22e5,1.14e6,1.51e6,inactive

Entries above whose gene name begins with W or w:
target gene,reagent no.,"firefly reporter light, replicate 1","firefly reporter light, replicate 2","Renilla control light, replicate 1","Renilla control light, replicate 2",call
wnd (GeneID 40143),1,,,,,inactive
wnd (GeneID 40143),2,41594,34868,1.91e5,1.82e5,active
wnd (GeneID 40143),3,1.01e6,1.05e6,2.60e6,1.91e6,inactive
wnd (GeneID 40143),4,,,,,inactive

Further records:
target gene,reagent no.,"firefly reporter light, replicate 1","firefly reporter light, replicate 2","Renilla control light, replicate 1","Renilla control light, replicate 2",call
CG8159 (GeneID 41040),1,2.03e5,1.85e5,2.76e6,1.87e6,inactive
CG8159 (GeneID 41040),2,2.20e5,2.48e5,6.23e5,5.54e5,inactive
beat-IIb (GeneID 42082),1,64310,10612,1.15e5,1.35e5,inactive
beat-IIb (GeneID 42082),2,1.93e5,1.46e5,2.64e6,2.21e6,inactive
beat-IIb (GeneID 42082),3,2.21e5,2.79e5,2.83e6,3.15e6,inactive
GlcAT-P (GeneID 39262),1,8.57e5,7.34e5,1.91e6,2.40e6,inactive
GlcAT-P (GeneID 39262),2,3.91e5,4.54e5,1.91e6,1.62e6,inactive
dao (GeneID 34891),1,1.11e5,1.82e5,1.96e6,2.29e6,inactive
dao (GeneID 34891),2,3.86e5,2.62e5,8.05e5,5.79e5,inactive
Acat2 (GeneID 38147),1,1.32e5,1.39e5,2.67e6,2.48e6,inactive
CG3386 (GeneID 38081),1,39243,65428,6.56e5,6.75e5,inactive
CG3386 (GeneID 38081),2,2.78e5,4.95e5,8.21e5,1.81e6,inactive
CG32213 + CG12519 + 825-Oak + 1 more,1,2.33e5,1.21e5,5.07e5,2.08e5,inactive
asRNA:CR42547 + CG15674,1,2.19e5,2.65e5,1.42e6,1.73e6,inactive
Rph (GeneID 32002),1,74811,68604,1.99e6,2.19e6,active
Rph (GeneID 32002),2,2.64e5,1.72e5,1.12e6,3.59e5,inactive
nmo (GeneID 38890),1,1.54e5,1.41e5,3.51e5,3.40e5,inactive
nmo (GeneID 38890),2,6.58e5,8.04e5,1.16e6,1.38e6,inactive
nmo (GeneID 38890),3,9.42e5,4.95e5,3.02e6,1.79e6,inactive
